Among the data in paper doi:10.1101/2022.09.06.506874 are binding values, retold here.

Protein sequences, listed by entry. Tags and fused reporters are not part of them. Lines headed by an entry give the natural chain unless they say otherwise; changes in a name come on top.
UniProt Q27497: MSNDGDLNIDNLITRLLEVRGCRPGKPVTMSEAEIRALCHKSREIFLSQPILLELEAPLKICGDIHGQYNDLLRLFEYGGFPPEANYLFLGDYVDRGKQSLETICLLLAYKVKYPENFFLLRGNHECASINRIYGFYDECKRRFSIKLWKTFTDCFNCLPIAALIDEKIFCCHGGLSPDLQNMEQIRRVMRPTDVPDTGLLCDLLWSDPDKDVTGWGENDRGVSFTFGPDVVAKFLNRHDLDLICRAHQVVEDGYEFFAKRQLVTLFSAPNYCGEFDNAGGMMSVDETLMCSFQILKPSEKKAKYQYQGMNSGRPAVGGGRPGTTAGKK
UniProt P48727: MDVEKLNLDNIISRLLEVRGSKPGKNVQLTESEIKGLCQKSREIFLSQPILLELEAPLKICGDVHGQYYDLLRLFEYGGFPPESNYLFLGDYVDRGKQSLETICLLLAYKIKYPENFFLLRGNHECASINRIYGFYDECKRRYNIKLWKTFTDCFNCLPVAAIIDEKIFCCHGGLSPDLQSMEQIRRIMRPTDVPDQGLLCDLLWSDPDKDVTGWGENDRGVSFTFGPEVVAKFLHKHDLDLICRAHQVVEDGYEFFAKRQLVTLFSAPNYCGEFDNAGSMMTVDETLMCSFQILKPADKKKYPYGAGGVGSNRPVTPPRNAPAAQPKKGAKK
UniProt Q95PZ1: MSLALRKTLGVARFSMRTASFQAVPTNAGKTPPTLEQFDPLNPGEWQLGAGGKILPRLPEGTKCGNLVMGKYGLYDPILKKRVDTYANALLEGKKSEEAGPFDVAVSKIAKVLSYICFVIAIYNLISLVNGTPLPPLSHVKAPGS

Read-outs that look alike come from different tables or passages of the source. These are yes or no findings as the source states them, for the method shown. In cells and extracts the contact can be indirect. Here binding means that the protein was enriched with, or labelled near, the bait; the list need not be complete. For some of these results: A no says only that the protein was not detected with the bait. Sequences can lack the tags named with a protein.

In assay [1] the target is T1, GRAS-1::GFP (C. elegans) (UniProt Q93654).
T1 sequence: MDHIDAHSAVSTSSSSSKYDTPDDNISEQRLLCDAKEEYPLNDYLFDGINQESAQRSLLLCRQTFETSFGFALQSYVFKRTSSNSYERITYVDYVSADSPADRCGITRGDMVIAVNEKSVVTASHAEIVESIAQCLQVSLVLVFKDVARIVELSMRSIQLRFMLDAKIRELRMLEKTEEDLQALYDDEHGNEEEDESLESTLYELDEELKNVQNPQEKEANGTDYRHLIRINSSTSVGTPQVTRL
The assay is described as follows: affinity purification with mass spectrometry.

Assay [2] addresses T1, GRAS-1::GFP (C. elegans). The experiment in a line: affinity purification with mass spectrometry. This is another data set of the same source.

As for FKB-6, in assay [1], the binding entry is recorded as “no binding”.
As to GSP-1 (from UniProt Q27497 1-329), the binding entry in assay [1] is recorded as “binds”.
On the same count and under the same terms, with GSP-2 (from UniProt P48727 1-333) the entry was “binds”; with “KASH protein KDP-1 (from UniProt Q95PZ1)”, “binds”.
In the case of NPP-3, the binding entry in assay [1] is recorded as “binds”.
Turning to NPP-13, the binding entry in assay [1] is “binds”.
Consider kinesin KLP-17, for which the binding result in assay [1] is “binds”.

B1: PLK-1 (protein, UniProt P34331 1-648)
chain: MNRLPNIAKPPQKSNQRKEKAPPEVPALIADKDRGTYYEKGRFLGKGGFAHCYELTNRATREVVAGKVVPKSMLVKQYQRDKMTQEVQIHRELGHINIVKLFNFFEDNLNVYITLELCARRSLMELHKRRKAVTEPEARYFTHQIVDGVLYLHDLNIIHRDMKLGNLFLNDDLVVKIGDFGLATTVNGDERKKTLCGTPNYIAPEVLNKAGHSFEVDIWAVGCILYILLFGQPPFESKSLEETYSRIRHNNYTIPSIATQPAASLIRKMLDPEPTRRPTAKQVQRDGFFKSGFMPTRLPVSCLTMVPKFGGHETSMMEENVAPRGVDARSQRPLNGRAGLSALPQHIVSNNADRERAQQQAAEATFREPEDAYLSQLFHQVAVLLEQRIPGLEEEEAALDGYQSPECLPVFWISKWVDYSDKYGIGYQLCDNSVGVLFNDNSRIMLDQAGNELTYIEKSNKEHYFSMHSGEMPGLLNKKVTLLKYFRSYMNDHLVKAGEGSEQRAGDDLARLPTLRVWFRTKSAIVLHLSNGTVQINFFNDHVKMMMCPLMQAVTFIDQNKRMLTYKLNNLQRNGCPEKFLHRLKYAKTMIERLMSDANVVSQNPARQPDMPRSMAAARSASAGSRGPNQAASHLPQSASGSNIHPRR
Turning to B1, in assay [2], the binding entry is “binds”.

B2: LMN-1 (protein, UniProt Q21443 1-566)
chain: MSSRKGTRSSRIVTLERSANSSLSNNGGGDDSFGSTLLETSRLQEKDHLTSLNSRLATYIDKVRQLEQENNRLQVQIRDIEVVEKKEKSNLADRFEAEKARLRRALDSAQDELAKYRIEYDAAKVEVKKLKPQVEKLERELAGAEEQALHAQSIADQSQAKQKTLQARNDKLVVENDDLKKQNITLRDTVEGLKKAVEDETLLRTAANNKIKALEEDLAFALQQHKGELEEVRHKRQVDMTTYAKQINDEYQSKLQDQIEEMRAQFKNNLHQNKTAFEDAYKNKLNAARERQEEAVSEAIHLRARVRDLETSSSGNASLIERLRSELDTLKRSFQEKLDDKDARIAELNQEIERMMSEFHDLLDVKIQLDAELKTYQALLEGEEERLNLTQEAPQNTSVHHVSFSSGGASAQRGVKRRRVVDVNGEDQDIDYLNRRSKLNKETVGPVGIDEVDEEGKWVRVANNSEEEQSIGGYKLVVKAGNKEASFQFSSRMKLAPHASATVWSADAGAVHHPPEVYVMKKQQWPIGDNPSARLEDSEGDTVSSITVEFSESSDPSDPADRCSIM
For B2, the binding result in assay [2] was “binds”.

B3: separase (protein, UniProt G5ED39 1-1262)
chain: MKITNKSVDKQHIEKLDELRKNVSCTVIGFAEQTAELQQEISELFIAEFGVNGPIDMNSLSKLARITSYYASSEYFQGLAKYQRTACKMFITWQTLRKEAMECRSKDREIFASIPAKLCFFYFYNGELCRAVVCLLDYIDLSDDTLAKEAALRWLMFLGETELIEKKLKTWKMDKSSKDMFSATEFAMNYLKKSEYRVEMLEKLMKLRDKVKSDPTRSFSRYELASYVSWLCSTLSNVPVGSALRECEFPDRVSHIQEAALKSDSLVRNRIPGLASSQFDNSVNASIWPFLDGHQEDSNYYVHIGSTIAWHFEMRRECALVNVTTAQTRDSMSAMILNLRVALKSASFFRVLQTTNTLAYYSSIIEEAGSEKNAKLMRVSCVNLLSSNPIIVRCSTPKETGATSRAHTPMAGSSVSEKQNTMRPDLADLLGDLELLDEQSFHPITRSCVCNVCTIYPLHSSFAAEYMMSYAIHSDFSQLSIKHFNDEFARIRERGMSSQVLMHRDSSVRPRPNIIQNEIFGMCVIRWLTKKLDSKESADEDTMEIFNNALKIVRYLQQRTTDMILAVTQLGRQLEFPMECNYSWMRPTIRKPRVKATIDCAVDILRAVSPFGRRPKVEKLEKNLQPFDKERFEKVRLAMRNEMNHYGHILYREWRCRLFAYVGRTSRDPWEAAYAWAESTQIGARNAVQSRLEKCKRGLVTMSGHDRFKTCVQSMPDEMTLVQIAMADDKTIYLVKLHADRDPIIMPLAHYSQAVELMDKFTFLLDEDEMIAKYPGDITPEEFWKRRKIVDGRMMTFVDEVQKHFLGVAASLLMPSGQLGPKAAELAIKIHKLSKGGLLLGEAKEMVYQSKLMDAKSWEALILRFCEMRTTDEKFKSFLPLMHRNSVEVMNQDDSIVTEKKYTYLVICPHLSQFCWERLPIFDEYPYVGRQVSIHSTFSQLEAMKSQEKQIPLQIDVQNAYYILDPDNNLGETQKRMVEYINKFNWEGTVGSAPKSNEISAALSQRDAFFFIGHGSGSSVMPRSVLKQSTCNAISLLMGCGSVRTIPQALGFDGKTAILDYAMAKCPLIVGCLWTVTDGEIDRFLIRMIDDCFEDSKSLTGIDKLRQLSEAMHEARSKARLKYLTGAAVVMYGLPVVAKQTTPFVEKDQRNLPQTPKTSARTSMRMETVPKTPKQEFVTSKSVPMTPIFSNNENKSPSRARMPSRVLKTPRQVKTFQEEDDEAPKRSTTRQLKPLVAPPIPATPTTRTTRSSARTPSRSRNL
Consider B3, for which, in assay [2], the binding entry was “binds”.

B4: IMA-2 (protein, UniProt P91276 1-531)
chain: MTLTETSLSHNAEEGKDEGGRLQQYKNLTKHEELRRRRTECSVEIRKQKGADMMMKRRNIVDVDEGGNSESELEEPEKISHQQSSTRLSNDEIRAILSNNPSEDDMVRCFESLRKSLSKTKNPPIDEVIHCGLLQALVQALSVENERVQYEAAWALTNIVSGSTEQTIAAVEAGVTIPLIHLSVHQSAQISEQALWAVANIAGDSSQLRDYVIKCHGVEALMHLMEKVDQLGDSHVRTIAWAFSNMCRHKNPHAPLEVLRVLSKGLVKLVQHTDRQVRQDACWAVSYLTDGPDEQIELARESGVLPHVVAFFKEAENLVAPALRTLGNVATGNDSLTQAVIDLGSLDEILPLMEKTRSSSIVKECCWLVSNIIAGTQKQIQAVLDANLLPVLINVLKSGDHKCQFEASWALSNLAQGGTNRQVVAMLEDNVVPALCQALLQTNTDMLNNTLETLYTLMLTVQNGYPHKVDILHDQVEENGGLDSLERLQESQSEQIYTQAYRIITQFFTDDDAGEKESHENADPQDNKWSF
As to B4, the binding entry in assay [2] is “binds”.

B5: IMA-3 (protein, UniProt Q19969 1-514)
chain: MSSNRQAYYKNNAKEQIGKEKRNEEVVSIRKDKREEAISKRRNINTQIEDDSETSTTPPGPFDANLLRLTVAAAQSSDPAEQLTAVQQARKMLSTDRNPPIDDLIGSGILPVLVQCLSSTDPNLQFEAAWALTNIASGTSEQTQAVVNAGAVPLFLQLLSCGNLNVCEQSVWALGNIIGDGPHFRDYCLELGILQPLLQFINPEIPIGFLRNVTWVIVNLCRCKDPAPSPAVVRTILPALSLLIHHQDTNILIDTVWALSYLTDGGNEHIQMVIEAQVVTHLVPLLGHVDVKVQTAALRAVGNIVTGTDEQTQLVLDSGVLRFMPGLLAHYKEKINKEAVWFVSNITAGNQQQVQDVFDAGIMPMIIHLLDRGDFPTQKEAAWAISNVTISGRPNQVEQMVKLGVLRPFCAMLSCTDSQIIQVVLDGINNILKMAGEAAEQVTSEIEECGGLDKIENLQNHENEDIYKLAFEIIDNFFSSDDETGNVEGAQSSAFGGDVPPVPDAPNGGWNFGK
In the case of B5, the binding entry in assay [2] is “binds”.

B6: GRP-1 (protein, UniProt P34512 1-393)
chain: MSSRYSERNGLSETEKMTLPKVRKRKAQLVDEIEALKNEVREVDEELDQVYYTHPKSKEYHKIVVNGRKKFNQDPWKALDWLASRNVVAKDPQALALWMKAGEGLSKSAIGEILGDNRPFALETLDRFTKEHKLHDVPIVPALRQYLFSFRLPGESQKINRILEKFAEVYANQNPSYGNADQAHTVAYSCIMVNTLLHNPNVKDKPSLEKYIEMNEQLLEKGAITIEQLTEVYESVSVTQFKIPDEVSTSGKGTVNDILLHAEREGWLFKQSSNPLFSGALSWKKRWFVLSENCLYYFDQMTDKEPKGIITLANVGIRKVEAPSRPFMFEIFSLSDGQIKACKTEQDGRLVEGRHSIYKICAVNDEDMRSWINAISRMMAPQQHLLARPKSTH
B6: the binding result in assay [2] is recorded as “binds”.
